Measured values: patent US20250011737A1
No constants are given. Whether binding was seen depends on the method and setting. Some binding calls cover weakened binding; strength is not graded here.

Chains of the proteins cited; added tags and fusions are not shown. Residues count along the entry.
UniProt Q08722, residues 19-141: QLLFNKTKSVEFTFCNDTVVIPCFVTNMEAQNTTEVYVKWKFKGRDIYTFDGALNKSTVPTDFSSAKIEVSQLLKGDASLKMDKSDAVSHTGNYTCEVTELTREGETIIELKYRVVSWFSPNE

Experiments:
CD47-ECD [1] = biological target: CD47-ECD (UniProt Q08722); assay: SPR sensorgram (FIG. 6)
CD47-ECD [2] = biological target: CD47-ECD (UniProt Q08722); assay: SPR (Biacore T100), CD47-ECD injected over construct bound to immobilized Cetuximab
CD47-ECD [3] = biological target: CD47-ECD (UniProt Q08722); assay: SPR sensorgram (FIG. 7B); complex of EGFR, Cetuximab, construct SEQ ID NO: 66 and CD47
CD47-ECD [4] = biological target: CD47-ECD (UniProt Q08722); assay: SPR (Biacore T100), CD47-ECD at 100 nM over construct bound to Cetuximab on immobilized hrEGFR-Fc

Measured: binding

B1: SIRP-α variant construct (SEQ ID NO: 66) (protein)
chain: CQFDLSTRRLKCGGGGSGGGGSGGGGSGGGGSEEELQIIQPDKSVLVAAGETATLRCTITSLFPVGPIQWFRGAGPGRVLIYNQRQGPFPRVTTVSDTTKRNNMDFSIRIGNITPADAGTYYCIKFRKGSPDDVEFKSGAGTELSVRAKPSGGGGSGGGGSGGGGSGGGGSCQFDLSTRRLKC
binds: all assays above
